Measured values published in patent US10005815B2, “Biologically cleavable tetrapeptide linking agents” (Arrowhead Madison Inc., priority 2015, dated 2018).

Test system: liver lysosomal (enzyme) extract
Assay: Digestion assay with rat liver lysosomal extract
Format: biochemical
Conditions: HPLC and ESI-MS of digestion aliquots
Experimental: Various amino acid combinations, tetrapeptides, were used to link various first moieties (R^5) and an AENA report group second compound (R^6) to form assay substrates (substrates). Cleavage rate of the peptides were evaluated by analysis of digestion of the substrates in the presence of rat lysosomal extract.
Reporting groups were coupled to the C-terminus of the peptide substrates as described above for UV-vis monitoring to explore the influence of amino acid sequence on kinetics of peptide degradation by HPLC. N-(2-aminoethyl)-4-nitroaniline (AENA) or N-(aminoethyl)-5-napthylamine-1-sulfonic acid (EDANS) were used as reporting groups for HPLC monitoring as neither absorptivity nor lambda maximum were affected for either after cleavage from the peptide. The N-terminus of each peptide substrate was modified with either methoxy polyethylene glycol (PEG12) or N-acetyl galactosamine (NAG(OR)3) (FIG. 1).
Proteolytic digestion experiments were carried out at a fixed substrate concentration (0.51 μmol) using liver lysosomal (enzyme) extract (0.45 μg/μL) in a 25 mM MES solution buffered to pH 5 containing 1% CHAPS and 1.8 mM DTT incubated at 37° C. Enzyme extract was activated in the presence of DTT for 15 minutes at 37° C. prior to addition of AENA labeled peptide substrates. At various time points, up to 26 h, 20 μL aliquots were removed and acidified to a pH of 3 with TFA. Analysis of fractions was performed using HPLC with a Aquasil C18 reverse-phase column (250×4.6, Thermofisher, Waltham, Mass.), monitored at 390 nm and 335 nm for AENA and EDANS respectively. Elution was performed with a gradient of acetonitrile and water buffered with 0.1% formic acid. Generation of unmodified reporter molecule was measured. To minimize freeze thaw cycles the lysosomal extract was dispensed into multiple aliquots prior to storage at −80° C. A new aliquot was employed for each study and used immediately upon thawing. Lysosomal extract was sourced from female Hans Wistar rats by differential density gradient centrifugation (Graham et al. 2000). Protein concentration of lysosomal extract was determined by standard BCA protein assay protocols. […]
Rate (also called velocity of degradation or velocity) was extrapolated during early linear turnover (Table 2). As used herein, rate is defined as the linear rate of reporting group generation at less than 50% completion (digestion rate was assumed to be linear at less than 50% completion). For substrates in which cleavage deviated from consecutive first order kinetics, the percent of reporting group liberated at the endpoint of digestion was used as a metric for comparison.

PEG12-FKFP- AENA [Compound 24b]
generation of H2N-Pro-R6 intermediate (digestion between proline at A1 and A2): did not appear to generate a significant amount of H2N-Pro-R^6 intermediate

NAG(OAc)3-FCitFP-AENA [Compound 22a]
generation of H2N-Pro-R6 intermediate (digestion between proline at A1 and A2): did not appear to generate a significant amount of H2N-Pro-R^6 intermediate

NAG(OAc)3-FCitVP- AENA [Compound 26]
generation of H2N-Pro-R6 intermediate (digestion between proline at A1 and A2): did not appear to generate a significant amount of H2N-Pro-R^6 intermediate

NAG(OAc)3-ACitAP- AENA [Compound 37]
generation of H2N-Pro-R6 intermediate (digestion between proline at A1 and A2): did not appear to generate a significant amount of H2N-Pro-R^6 intermediate

PEG12-ACitFP- AENA [Compound 31]
generation of H2N-Pro-R6 intermediate (digestion between proline at A1 and A2): did not appear to generate a significant amount of H2N-Pro-R^6 intermediate

NAG(OH)3-FCitFP-AENA [Compound 22b]
generation of H2N-Pro-R6 intermediate (digestion between proline at A1 and A2): did not appear to generate a significant amount of H2N-Pro-R^6 intermediate

NAG(OAc)3-FCitAP- AENA [Compound 30]
generation of H2N-Pro-R6 intermediate (digestion between proline at A1 and A2): did not appear to generate a significant amount of H2N-Pro-R^6 intermediate

PEG12-FDFP- AENA [Compound 34b]
generation of H2N-Pro-R6 intermediate (digestion between proline at A1 and A2): did not appear to generate a significant amount of H2N-Pro-R^6 intermediate

NAG(OAc)3-VCitFP- AENA [Compound 28]
generation of H2N-Pro-R6 intermediate (digestion between proline at A1 and A2): did not appear to generate a significant amount of H2N-Pro-R^6 intermediate

Some compounds share one wording; it may come from a single statement.
